# Test results taken from the supplement of paper PMC12823440, “Inhibitors supercharge kinase turnover through native proteolytic circuits” (Nature, 2025).
# Amino acid sequences for entries named in this document (tags omitted). A change or cut given only in a name is not applied to a line headed by its entry.
# UniProt Q9UQM7, whole entry: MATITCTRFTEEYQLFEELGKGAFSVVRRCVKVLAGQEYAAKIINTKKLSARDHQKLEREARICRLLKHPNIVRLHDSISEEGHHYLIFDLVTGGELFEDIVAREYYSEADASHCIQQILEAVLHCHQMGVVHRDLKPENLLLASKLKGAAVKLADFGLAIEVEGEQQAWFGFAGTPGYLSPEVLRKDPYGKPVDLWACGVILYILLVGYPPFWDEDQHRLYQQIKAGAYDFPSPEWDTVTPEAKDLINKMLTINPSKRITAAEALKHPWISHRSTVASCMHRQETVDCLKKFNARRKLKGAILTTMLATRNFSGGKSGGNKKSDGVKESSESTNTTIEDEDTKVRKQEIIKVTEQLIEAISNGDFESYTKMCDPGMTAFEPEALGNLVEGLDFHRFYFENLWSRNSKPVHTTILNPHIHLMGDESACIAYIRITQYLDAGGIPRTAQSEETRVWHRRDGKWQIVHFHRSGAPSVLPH
# UniProt Q13555: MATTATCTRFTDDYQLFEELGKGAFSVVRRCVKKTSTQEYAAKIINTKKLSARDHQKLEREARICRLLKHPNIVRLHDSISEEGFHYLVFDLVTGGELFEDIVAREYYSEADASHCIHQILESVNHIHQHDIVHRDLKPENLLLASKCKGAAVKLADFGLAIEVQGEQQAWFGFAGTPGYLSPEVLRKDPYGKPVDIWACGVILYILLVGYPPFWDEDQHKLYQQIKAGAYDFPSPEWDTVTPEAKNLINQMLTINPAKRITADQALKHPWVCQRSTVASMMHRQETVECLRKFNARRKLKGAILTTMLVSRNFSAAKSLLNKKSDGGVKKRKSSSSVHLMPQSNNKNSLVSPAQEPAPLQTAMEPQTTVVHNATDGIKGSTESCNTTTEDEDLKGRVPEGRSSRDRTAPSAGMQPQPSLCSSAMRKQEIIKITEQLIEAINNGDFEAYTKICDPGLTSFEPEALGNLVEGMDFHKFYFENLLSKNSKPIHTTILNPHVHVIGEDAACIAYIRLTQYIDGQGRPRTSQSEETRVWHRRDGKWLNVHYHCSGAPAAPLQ
# UniProt Q15131: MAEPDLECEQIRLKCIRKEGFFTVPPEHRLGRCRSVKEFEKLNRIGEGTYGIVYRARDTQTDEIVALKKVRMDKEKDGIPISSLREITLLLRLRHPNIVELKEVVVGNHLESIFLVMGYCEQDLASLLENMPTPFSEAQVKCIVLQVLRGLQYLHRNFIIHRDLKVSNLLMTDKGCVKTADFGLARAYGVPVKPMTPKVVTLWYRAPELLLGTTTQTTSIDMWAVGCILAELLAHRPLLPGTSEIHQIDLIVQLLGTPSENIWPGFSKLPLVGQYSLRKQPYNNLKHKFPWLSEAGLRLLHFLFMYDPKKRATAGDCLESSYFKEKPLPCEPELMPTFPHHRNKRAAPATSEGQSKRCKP
# UniProt Q00526: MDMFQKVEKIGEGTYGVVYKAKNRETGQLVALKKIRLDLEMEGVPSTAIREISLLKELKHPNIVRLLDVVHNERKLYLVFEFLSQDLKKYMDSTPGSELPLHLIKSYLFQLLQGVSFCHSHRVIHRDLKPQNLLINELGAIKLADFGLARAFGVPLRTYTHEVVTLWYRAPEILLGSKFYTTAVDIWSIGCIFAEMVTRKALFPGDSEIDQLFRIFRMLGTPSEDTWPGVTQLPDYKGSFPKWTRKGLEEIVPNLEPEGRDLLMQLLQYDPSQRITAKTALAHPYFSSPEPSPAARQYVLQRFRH
# UniProt Q00535, whole entry, looked up: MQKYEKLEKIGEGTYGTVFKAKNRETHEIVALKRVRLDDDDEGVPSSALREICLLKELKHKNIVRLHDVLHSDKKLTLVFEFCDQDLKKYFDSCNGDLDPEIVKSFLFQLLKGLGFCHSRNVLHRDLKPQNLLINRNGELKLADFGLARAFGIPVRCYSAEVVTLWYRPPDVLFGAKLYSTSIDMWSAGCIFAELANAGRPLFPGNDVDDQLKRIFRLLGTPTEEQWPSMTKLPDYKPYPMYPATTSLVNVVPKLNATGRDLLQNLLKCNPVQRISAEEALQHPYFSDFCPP
# UniProt Q00534, whole entry: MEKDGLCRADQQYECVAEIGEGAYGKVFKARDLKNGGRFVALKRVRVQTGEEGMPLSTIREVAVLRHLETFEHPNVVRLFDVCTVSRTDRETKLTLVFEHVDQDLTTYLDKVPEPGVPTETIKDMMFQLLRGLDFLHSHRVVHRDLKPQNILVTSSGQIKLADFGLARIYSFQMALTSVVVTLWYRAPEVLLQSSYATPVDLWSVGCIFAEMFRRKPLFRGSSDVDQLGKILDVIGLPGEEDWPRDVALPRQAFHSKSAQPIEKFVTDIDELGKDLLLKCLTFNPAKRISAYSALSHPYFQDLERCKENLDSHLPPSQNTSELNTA
# UniProt O96017, whole entry: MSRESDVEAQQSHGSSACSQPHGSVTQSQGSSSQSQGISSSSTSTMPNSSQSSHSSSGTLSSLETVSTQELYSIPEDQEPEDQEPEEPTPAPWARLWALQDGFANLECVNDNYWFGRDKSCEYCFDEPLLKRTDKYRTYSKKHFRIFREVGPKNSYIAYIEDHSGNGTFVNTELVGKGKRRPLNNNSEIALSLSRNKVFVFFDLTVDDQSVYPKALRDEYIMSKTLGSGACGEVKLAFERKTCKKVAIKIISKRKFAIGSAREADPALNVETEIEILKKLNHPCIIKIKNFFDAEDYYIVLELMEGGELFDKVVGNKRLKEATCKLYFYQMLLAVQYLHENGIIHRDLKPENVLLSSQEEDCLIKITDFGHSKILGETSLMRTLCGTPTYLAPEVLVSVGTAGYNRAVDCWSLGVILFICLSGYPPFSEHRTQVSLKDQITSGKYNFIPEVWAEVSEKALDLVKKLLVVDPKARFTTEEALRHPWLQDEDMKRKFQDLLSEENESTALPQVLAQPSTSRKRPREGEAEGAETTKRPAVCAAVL
# UniProt P07333, whole entry: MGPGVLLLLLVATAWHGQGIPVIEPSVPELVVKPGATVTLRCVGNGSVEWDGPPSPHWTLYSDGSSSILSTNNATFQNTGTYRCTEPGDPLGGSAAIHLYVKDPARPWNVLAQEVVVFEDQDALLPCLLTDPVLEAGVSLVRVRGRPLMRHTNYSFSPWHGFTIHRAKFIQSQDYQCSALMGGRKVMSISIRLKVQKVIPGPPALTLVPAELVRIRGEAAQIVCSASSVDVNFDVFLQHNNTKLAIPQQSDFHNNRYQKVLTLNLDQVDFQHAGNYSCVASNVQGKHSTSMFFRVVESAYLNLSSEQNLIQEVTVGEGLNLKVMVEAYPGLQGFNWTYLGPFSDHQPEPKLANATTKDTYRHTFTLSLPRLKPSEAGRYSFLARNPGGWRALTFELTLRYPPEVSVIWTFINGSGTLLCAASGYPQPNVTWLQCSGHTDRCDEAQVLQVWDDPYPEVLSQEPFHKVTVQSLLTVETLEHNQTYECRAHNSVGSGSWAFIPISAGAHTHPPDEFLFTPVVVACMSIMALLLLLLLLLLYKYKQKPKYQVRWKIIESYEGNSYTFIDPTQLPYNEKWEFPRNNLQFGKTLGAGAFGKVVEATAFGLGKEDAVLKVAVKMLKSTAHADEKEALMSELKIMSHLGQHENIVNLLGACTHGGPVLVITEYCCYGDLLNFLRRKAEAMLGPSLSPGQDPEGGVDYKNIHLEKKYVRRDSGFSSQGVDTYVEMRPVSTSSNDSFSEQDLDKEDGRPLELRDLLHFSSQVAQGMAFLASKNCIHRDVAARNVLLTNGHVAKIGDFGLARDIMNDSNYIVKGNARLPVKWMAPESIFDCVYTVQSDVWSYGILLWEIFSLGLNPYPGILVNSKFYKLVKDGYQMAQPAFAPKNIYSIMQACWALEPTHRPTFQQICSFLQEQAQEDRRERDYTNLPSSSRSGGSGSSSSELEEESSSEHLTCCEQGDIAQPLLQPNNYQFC
# UniProt P41240: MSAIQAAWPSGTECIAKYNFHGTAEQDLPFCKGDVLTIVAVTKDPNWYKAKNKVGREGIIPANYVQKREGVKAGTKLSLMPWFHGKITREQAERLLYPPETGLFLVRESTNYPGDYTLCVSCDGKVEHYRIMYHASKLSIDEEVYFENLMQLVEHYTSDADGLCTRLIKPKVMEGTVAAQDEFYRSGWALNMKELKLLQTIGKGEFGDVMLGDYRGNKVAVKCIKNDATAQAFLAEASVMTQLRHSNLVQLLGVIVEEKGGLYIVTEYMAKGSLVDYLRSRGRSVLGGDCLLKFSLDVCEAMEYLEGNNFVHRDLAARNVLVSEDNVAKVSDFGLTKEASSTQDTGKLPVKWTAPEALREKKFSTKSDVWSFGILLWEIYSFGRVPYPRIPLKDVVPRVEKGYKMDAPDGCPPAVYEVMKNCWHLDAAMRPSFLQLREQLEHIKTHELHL
# Where a name gives a salt, the structure may show the parent alone. The list shows a part of the results. The calls rarely recur for the same compound in another form.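 Kinases, fused to nanoluciferase, were expressed in K562 cells; luminescence was measured every 4 h from 2 to 18 h as percent of control (DMSO = 100%, positive control = 0%). A time point is decreased if signal falls significantly (2 sigma). Hits were called by the authors by a rule that is not shown; the count of time points alone does not decide it.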
# What was measured:
# Assay in all cases: number of time points (of 5) at which kinase-Nluc abundance scored as decreased, DMSO-normalised (count); higher = more persistent destabilization
# Settings in all cases: K562; 2-18 h
# CAMK2A = CAMK2A (UniProt Q9UQM7)
# CAMK2G = CAMK2G (UniProt Q13555)
# CDK10 = CDK10 (UniProt Q15131)
# CDK2 = CDK2 (UniProt P24941)
# CDK3 = CDK3 (UniProt Q00526)
# CDK5 = CDK5 (UniProt Q00535)
# CDK6 = CDK6 (UniProt Q00534)
# CHEK2 = CHEK2 (UniProt O96017)
# CSF1R = CSF1R (UniProt P07333)
# CSK = CSK (UniProt P41240)
Structure (SMILES),number of time points (CAMK2A),number of time points (CAMK2G),number of time points (CDK10),number of time points (CDK2),number of time points (CDK3),number of time points (CDK5),number of time points (CDK6),number of time points (CHEK2),number of time points (CSF1R),number of time points (CSK)
COc1cc2nc(NC3CC3)nc(NC3CCN(C(C)C)CC3)c2cc1OC (10 µM),0,0,0,0,0,0,0,0,0,0
C[C@H](Nc1cc2c(-c3ccc4c(c3)OCO4)noc2cn1)c1ccccc1 (10 µM),0,0,0,0,0,0,0,0,0,0
COc1c(Nc2ncc(Cl)c(N[C@H]3[C@@H](C(N)=O)[C@@H]4C=C[C@H]3C4)n2)ccc2c1CC[C@@H](N1CCOCC1)CC2 (10 µM),0,0,0,0,0,0,0,2,0,0
COc1cc2nccc(Nc3cccc(Oc4ccccc4)c3)c2cc1OC (2.5 µM),0,0,0,0,0,1,0,0,0,0
Cc1ccc2c(NS(=O)(=O)c3ccccc3Cl)cccc2c1Oc1ncccc1-c1ccnc(N[C@H]2CCCNC2)n1 (2.5 µM),0,0,0,0,0,0,0,0,0,0
Cc1cc2c(F)c(Oc3ncnn4cc(OC[C@@H](C)OC(=O)[C@H](C)N)c(C)c34)ccc2[nH]1 [Brivanib (alaninate)] (10 µM),0,0,0,0,0,0,0,0,0,0
CCn1c(N)c(C(=O)NC)c(=O)c2ccc(C#CC(C)(O)COC)nc21 (stereo not given) (10 µM),0,0,0,0,0,0,0,0,0,0
CC(ONC(=O)c1cc(C(F)(F)F)cc(C(F)(F)F)c1)C(=O)Nc1ccc(Cl)cc1 (stereo not given) (2.5 µM),0,0,0,0,0,0,0,0,0,0
CN1CCN(c2ccc(-n3cc(-c4ccncc4OCC4CCNCC4)cn3)cc2)CC1 [MELK-8a (hydrochloride)] (10 µM),0,0,0,0,0,0,0,3,3,0
CCOC(=O)c1c(C)[nH]c(C=C2C(=O)Nc3ccccc32)c1C (10 µM),0,0,0,0,0,0,0,0,0,0
O=c1cc(-c2ccc(O[C@@H]3O[C@H](CO)[C@@H](O)[C@H](O)[C@H]3O)cc2)oc2cc(O)c([C@@H]3O[C@H](CO)[C@@H](O)[C@H](O)[C@H]3O[C@@H]3OC[C@H](O)[C@H](O)[C@H]3O)c(O)c12 [Vaccarin] (10 µM),0,0,0,0,0,0,0,0,0,0
O=C(NCc1ccn[nH]1)c1cc([C@@H]2CCNC[C@H]2COc2ccc3c(c2)OCO3)ccc1F [GRK2-IN-1 (hydrochloride)] (10 µM),0,0,0,0,0,0,0,0,0,0
CN(C)C(=O)c1cc2cnc(Nc3ccc(N4CCN(CCCCNC(=O)COc5cccc6c5C(=O)N(C5CCC(=O)NC5=O)C6=O)CC4)cn3)nc2n1C1CCCC1 (stereo not given) (10 µM),0,0,0,0,0,0,0,0,0,0
CC(C)Cn1ncc2cc(Oc3ccc(F)cc3F)c(C(=O)NCCN(C)C)cc21 [p38α inhibitor 1] (10 µM),0,0,0,0,0,0,0,0,0,0
CCCCC(=O)OCC(=O)[C@]1(O)Cc2c(O)c3c(c(O)c2[C@@H](O[C@H]2C[C@H](NC(=O)C(F)(F)F)[C@H](O)[C@H](C)O2)C1)C(=O)c1c(OC)cccc1C3=O [Valrubicin] (10 µM),0,0,0,0,0,0,0,0,0,0
CCC[C@H](C)Oc1nc(N)c2[nH]c(=O)n(CCCCCN3CCCCC3)c2n1 (10 µM),0,0,0,0,0,0,0,0,0,0
O=C1Cc2ccccc2N1 [Oxindole] (10 µM),0,0,0,0,0,0,0,0,0,0
NC(=O)c1ccccc1Nc1ccnc(Nc2cccc(O)c2)n1 (10 µM),0,2,0,0,0,0,0,1,0,0
Nc1nccc(Oc2ccc3c(C(=O)Nc4cccc(C(F)(F)F)c4)cccc3c2)n1 (10 µM),1,0,1,0,0,0,0,2,0,0
Fc1ccc(Cl)cc1-c1nc(Nc2ccncc2)c2nccnc2n1 (10 µM),0,0,0,0,0,0,0,0,0,0
S=C(NCc1ccc2c(c1)OCO2)N1CCN(c2ncnc3c2oc2ccccc23)CC1 [Amuvatinib] (2.5 µM),0,0,0,0,0,0,0,0,0,0

Structure (SMILES),number of time points (CAMK2A),number of time points (CAMK2G),number of time points (CDK10),number of time points (CDK2),number of time points (CDK3),number of time points (CDK5),number of time points (CDK6),number of time points (CHEK2),number of time points (CSF1R),number of time points (CSK)
O=c1cc(N2CCOCC2)oc2c(-c3cccc4c3sc3ccccc34)cccc12 (10 µM),0,0,0,0,0,0,0,0,0,0
N#Cc1cc(-c2ccnc(Nc3ccc(N4CCOCC4)cc3)n2)ccc1OC1CCOCC1 (10 µM),0,0,0,0,0,0,0,0,0,0
COc1ccc(-c2cc(=O)c3c(O)cc(O)cc3o2)cc1-c1c(O)cc(O)c2c(=O)cc(-c3ccc(O)cc3)oc12 [Bilobetin] (2.5 µM),0,0,0,0,0,0,0,0,0,0
COc1ccc(Br)c(C=O)c1O [6-Bromo-2-hydroxy-3-methoxybenzaldehyde] (10 µM),0,0,0,0,0,0,0,0,0,0
CN1CCN(c2ccc(-c3ccncc3-c3cc(F)c(O)c(F)c3)cc2)CC1 (10 µM),0,0,0,0,0,0,0,0,0,0
Cc1ccc(C2CC(=O)NC(SCC(=O)Nc3nccs3)=C2C#N)cc1 (stereo not given) [Necrostatin-34] (10 µM),0,0,0,0,0,0,0,0,0,0
COc1cc(N2CCC(N3CCN(C)CC3)CC2)ccc1Nc1ncnc(Nc2ccccc2S(=O)(=O)C(C)C)n1 (10 µM),0,0,0,0,0,0,0,0,0,0
Cc1nc(Nc2cnn(C3CCNCC3)c2)nc2c1N(C)C(=O)c1cc3ccccc3cc1N2C (2.5 µM),0,0,0,0,0,0,0,0,0,0
CN(C)c1cc[n+](Cc2ccc(OCCOc3ccc(C[n+]4ccc(N(C)C)cc4)cc3)cc2)cc1 (10 µM),0,0,0,0,0,0,0,0,0,0
COCCNc1cc(NC(=O)N2CCCc3cc(CN4CCOCC4=O)c(C=O)nc32)ncc1C#N (10 µM),0,0,0,0,0,0,0,0,0,0
Cc1cccc(-c2nn3c(c2-c2ccnc4ccc(C(N)=O)cc24)CCC3)n1 [Galunisertib] (10 µM),0,0,0,0,0,0,0,0,0,0
COc1ccc(CCNCc2ccc(OCc3ccc(Cl)nc3)c(OC)c2)cc1OC [SBE13 (Hydrochloride)] (10 µM),0,0,0,0,0,0,0,0,0,0
O=C(C#Cc1ccccc1)c1cccc([N+](=O)[O-])c1 (10 µM),0,0,0,0,0,0,0,0,0,0
CC(C)(Oc1ccc(Cl)cc1)C(=O)Nc1ccc(OCc2ccc(C#N)cc2)cc1 [AMPK activator 4] (10 µM),0,0,0,0,0,0,0,0,0,0
Cn1cnc2c(F)c(Nc3ccc(Br)cc3F)c(C(=O)NOCCO)cc21 [Binimetinib] (10 µM),0,0,0,0,0,0,0,0,0,0
Cc1ccc(NC(=O)N2CCN(c3nc(N)nc4sc(-c5cccnc5)nc34)CC2)cc1 [PI4KIII beta inhibitor 3] (10 µM),0,0,0,0,0,0,0,0,0,0
CC(C)(C)S(=O)(=O)c1cc2c(Nc3ccc4scnc4c3)ncnc2cc1OCCOP(=O)(O)O (2 µM),0,0,0,0,0,0,0,0,0,0
CC(C)=CCC[C@](C)(O[C@@H]1O[C@H](CO[C@@H]2O[C@H](CO)[C@@H](O)[C@H](O)[C@H]2O)[C@@H](O)[C@H](O)[C@H]1O)[C@H]1CC[C@]2(C)[C@@H]1[C@H](O)C[C@@H]1[C@@]3(C)CC[C@H](O[C@@H]4O[C@H](CO)[C@@H](O)[C@H](O)[C@H]4O[C@@H]4O[C@H](CO)[C@@H](O)[C@H](O)[C@H]4O)C(C)(C)[C@@H]3CC[C@]12C [Ginsenoside Rb1] (10 µM),0,0,0,0,0,0,0,0,0,0
CC(C1CC1)n1cnc2c(NCc3cccc(C(F)(F)F)c3)nc(NCCN(C)C)nc21 (stereo not given) (10 µM),0,0,0,0,0,0,0,0,0,0
COCCOc1cnc2ccn([C@H](C)c3nnc4c(F)cc(-c5cnn(C)c5)cn34)c(=O)c2c1 (10 µM),0,0,0,0,0,0,0,0,0,0

# Entries listed so far with fluorine, in the order listed:
Structure (SMILES),number of time points (CAMK2A),number of time points (CAMK2G),number of time points (CDK10),number of time points (CDK2),number of time points (CDK3),number of time points (CDK5),number of time points (CDK6),number of time points (CHEK2),number of time points (CSF1R),number of time points (CSK)
Cc1cc2c(F)c(Oc3ncnn4cc(OC[C@@H](C)OC(=O)[C@H](C)N)c(C)c34)ccc2[nH]1 [Brivanib (alaninate)] (10 µM),0,0,0,0,0,0,0,0,0,0
CC(ONC(=O)c1cc(C(F)(F)F)cc(C(F)(F)F)c1)C(=O)Nc1ccc(Cl)cc1 (stereo not given) (2.5 µM),0,0,0,0,0,0,0,0,0,0
O=C(NCc1ccn[nH]1)c1cc([C@@H]2CCNC[C@H]2COc2ccc3c(c2)OCO3)ccc1F [GRK2-IN-1 (hydrochloride)] (10 µM),0,0,0,0,0,0,0,0,0,0
CC(C)Cn1ncc2cc(Oc3ccc(F)cc3F)c(C(=O)NCCN(C)C)cc21 [p38α inhibitor 1] (10 µM),0,0,0,0,0,0,0,0,0,0
CCCCC(=O)OCC(=O)[C@]1(O)Cc2c(O)c3c(c(O)c2[C@@H](O[C@H]2C[C@H](NC(=O)C(F)(F)F)[C@H](O)[C@H](C)O2)C1)C(=O)c1c(OC)cccc1C3=O [Valrubicin] (10 µM),0,0,0,0,0,0,0,0,0,0
Nc1nccc(Oc2ccc3c(C(=O)Nc4cccc(C(F)(F)F)c4)cccc3c2)n1 (10 µM),1,0,1,0,0,0,0,2,0,0
Fc1ccc(Cl)cc1-c1nc(Nc2ccncc2)c2nccnc2n1 (10 µM),0,0,0,0,0,0,0,0,0,0
CN1CCN(c2ccc(-c3ccncc3-c3cc(F)c(O)c(F)c3)cc2)CC1 (10 µM),0,0,0,0,0,0,0,0,0,0
Cn1cnc2c(F)c(Nc3ccc(Br)cc3F)c(C(=O)NOCCO)cc21 [Binimetinib] (10 µM),0,0,0,0,0,0,0,0,0,0
CC(C1CC1)n1cnc2c(NCc3cccc(C(F)(F)F)c3)nc(NCCN(C)C)nc21 (stereo not given) (10 µM),0,0,0,0,0,0,0,0,0,0
COCCOc1cnc2ccn([C@H](C)c3nnc4c(F)cc(-c5cnn(C)c5)cn34)c(=O)c2c1 (10 µM),0,0,0,0,0,0,0,0,0,0
